For test [1], the target named is T1, GST-USP13 (UniProt Q92995).
T1 sequence: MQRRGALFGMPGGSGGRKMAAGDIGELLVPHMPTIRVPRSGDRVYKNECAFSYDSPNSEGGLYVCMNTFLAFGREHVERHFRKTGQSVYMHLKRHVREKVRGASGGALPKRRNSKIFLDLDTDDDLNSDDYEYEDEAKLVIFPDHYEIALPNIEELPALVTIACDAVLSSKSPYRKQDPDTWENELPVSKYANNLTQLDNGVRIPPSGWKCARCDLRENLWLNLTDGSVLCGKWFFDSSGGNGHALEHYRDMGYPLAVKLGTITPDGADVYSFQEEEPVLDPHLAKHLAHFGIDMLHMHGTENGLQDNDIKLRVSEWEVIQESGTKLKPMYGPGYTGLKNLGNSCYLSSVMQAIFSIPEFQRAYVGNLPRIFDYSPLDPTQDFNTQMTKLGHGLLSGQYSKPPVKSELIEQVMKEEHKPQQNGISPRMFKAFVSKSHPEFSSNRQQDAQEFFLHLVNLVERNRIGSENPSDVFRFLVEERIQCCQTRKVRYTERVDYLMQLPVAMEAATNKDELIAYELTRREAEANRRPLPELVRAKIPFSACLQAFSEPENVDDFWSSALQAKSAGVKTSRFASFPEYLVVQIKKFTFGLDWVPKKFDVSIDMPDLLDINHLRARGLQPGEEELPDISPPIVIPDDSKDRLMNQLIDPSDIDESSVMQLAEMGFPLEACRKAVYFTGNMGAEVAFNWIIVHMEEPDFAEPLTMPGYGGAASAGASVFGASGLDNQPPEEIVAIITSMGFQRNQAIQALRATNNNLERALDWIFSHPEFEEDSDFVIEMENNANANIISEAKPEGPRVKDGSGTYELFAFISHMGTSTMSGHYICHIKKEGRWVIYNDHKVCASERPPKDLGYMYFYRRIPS
Briefly: pull-down; purified GST-tagged protein immobilised on glutathione beads and incubated with recombinant or purified protein; immunoblotting; both purified. On the technique in general: In western blotting, separated proteins are transferred to a membrane and probed.

Amino acid sequences for entries named in this document (tags omitted).
UniProt Q9UKV5: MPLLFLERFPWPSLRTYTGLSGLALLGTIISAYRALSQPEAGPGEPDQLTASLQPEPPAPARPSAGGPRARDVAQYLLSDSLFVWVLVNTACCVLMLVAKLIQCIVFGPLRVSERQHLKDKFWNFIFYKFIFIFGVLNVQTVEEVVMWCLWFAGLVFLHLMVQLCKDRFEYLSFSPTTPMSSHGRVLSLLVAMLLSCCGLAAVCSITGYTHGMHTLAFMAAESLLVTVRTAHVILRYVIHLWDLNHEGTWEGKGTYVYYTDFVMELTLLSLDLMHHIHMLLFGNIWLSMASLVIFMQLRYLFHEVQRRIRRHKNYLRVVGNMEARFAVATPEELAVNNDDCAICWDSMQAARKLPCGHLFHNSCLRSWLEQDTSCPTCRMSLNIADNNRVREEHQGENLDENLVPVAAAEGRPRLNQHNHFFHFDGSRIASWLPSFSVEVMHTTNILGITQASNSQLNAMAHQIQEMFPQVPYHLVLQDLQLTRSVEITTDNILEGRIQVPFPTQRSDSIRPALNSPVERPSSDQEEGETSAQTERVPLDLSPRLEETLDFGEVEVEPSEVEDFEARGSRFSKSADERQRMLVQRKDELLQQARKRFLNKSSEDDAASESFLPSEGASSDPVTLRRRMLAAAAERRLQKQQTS
UniProt P46379: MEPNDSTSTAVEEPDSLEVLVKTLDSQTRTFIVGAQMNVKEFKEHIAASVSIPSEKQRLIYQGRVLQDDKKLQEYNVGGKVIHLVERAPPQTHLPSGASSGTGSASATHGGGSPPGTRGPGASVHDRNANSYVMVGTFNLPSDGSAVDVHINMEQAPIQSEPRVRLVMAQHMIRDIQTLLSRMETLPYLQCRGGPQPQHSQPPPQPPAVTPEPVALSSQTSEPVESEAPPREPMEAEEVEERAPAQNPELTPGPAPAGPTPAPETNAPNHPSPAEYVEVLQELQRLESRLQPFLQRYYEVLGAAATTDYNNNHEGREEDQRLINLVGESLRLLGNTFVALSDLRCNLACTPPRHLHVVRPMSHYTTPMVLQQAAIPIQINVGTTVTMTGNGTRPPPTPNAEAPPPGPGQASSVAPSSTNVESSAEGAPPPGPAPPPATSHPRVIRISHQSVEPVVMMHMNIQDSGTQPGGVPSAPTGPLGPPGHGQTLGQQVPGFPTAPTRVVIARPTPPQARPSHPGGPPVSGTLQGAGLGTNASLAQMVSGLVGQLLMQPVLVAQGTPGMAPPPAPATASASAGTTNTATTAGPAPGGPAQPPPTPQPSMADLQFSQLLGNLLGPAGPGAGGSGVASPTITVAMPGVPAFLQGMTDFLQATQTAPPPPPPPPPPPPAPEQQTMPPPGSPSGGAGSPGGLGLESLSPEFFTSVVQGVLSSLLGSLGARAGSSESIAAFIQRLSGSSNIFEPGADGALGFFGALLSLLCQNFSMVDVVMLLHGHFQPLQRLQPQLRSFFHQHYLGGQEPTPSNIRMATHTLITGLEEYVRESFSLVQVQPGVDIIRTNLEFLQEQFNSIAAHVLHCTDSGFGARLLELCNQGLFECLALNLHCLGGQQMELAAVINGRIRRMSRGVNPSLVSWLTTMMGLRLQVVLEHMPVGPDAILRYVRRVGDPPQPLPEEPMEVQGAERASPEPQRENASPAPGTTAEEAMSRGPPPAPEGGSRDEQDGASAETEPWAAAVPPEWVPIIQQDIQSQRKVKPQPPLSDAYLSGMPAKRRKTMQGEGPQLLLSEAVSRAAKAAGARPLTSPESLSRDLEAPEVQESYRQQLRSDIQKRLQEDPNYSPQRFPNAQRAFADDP
UniProt P35998: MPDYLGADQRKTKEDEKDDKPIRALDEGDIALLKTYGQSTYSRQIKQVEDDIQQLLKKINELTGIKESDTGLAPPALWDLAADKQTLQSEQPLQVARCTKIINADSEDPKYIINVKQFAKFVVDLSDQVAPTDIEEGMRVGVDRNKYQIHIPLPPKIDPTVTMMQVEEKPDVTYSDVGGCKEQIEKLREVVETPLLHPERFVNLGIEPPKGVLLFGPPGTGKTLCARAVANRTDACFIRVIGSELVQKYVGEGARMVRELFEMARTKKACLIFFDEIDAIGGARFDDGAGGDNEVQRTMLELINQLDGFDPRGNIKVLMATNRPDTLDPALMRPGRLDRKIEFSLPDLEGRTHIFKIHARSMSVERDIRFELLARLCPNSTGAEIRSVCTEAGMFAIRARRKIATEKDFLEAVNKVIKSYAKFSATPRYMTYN
UniProt Q7L5D6: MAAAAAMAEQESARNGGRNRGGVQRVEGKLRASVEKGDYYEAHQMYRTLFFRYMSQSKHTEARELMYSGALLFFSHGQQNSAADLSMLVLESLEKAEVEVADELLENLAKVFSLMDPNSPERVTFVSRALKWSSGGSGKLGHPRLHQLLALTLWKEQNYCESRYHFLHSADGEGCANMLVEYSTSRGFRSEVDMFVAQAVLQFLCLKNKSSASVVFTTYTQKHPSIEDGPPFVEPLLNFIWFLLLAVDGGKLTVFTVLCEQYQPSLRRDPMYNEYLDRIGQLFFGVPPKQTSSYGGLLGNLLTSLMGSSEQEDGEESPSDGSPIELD

In test [2] the target is T1, GST-USP13. Briefly: pull-down; glutathione beads with purified GST-tagged protein incubated with whole cell extracts (control, gp78-expressing, gp78 knock-down or knock-out cells; depletion of gp78 reduced the USP13-p97 interaction threefold to fourfold and did not affect USP13-Bag6); immunoblotting; only the target purified.
For test [3], the target named is T2, endogenous USP13 (human (endogenous in HEK293)) (UniProt Q92995).
T2 sequence: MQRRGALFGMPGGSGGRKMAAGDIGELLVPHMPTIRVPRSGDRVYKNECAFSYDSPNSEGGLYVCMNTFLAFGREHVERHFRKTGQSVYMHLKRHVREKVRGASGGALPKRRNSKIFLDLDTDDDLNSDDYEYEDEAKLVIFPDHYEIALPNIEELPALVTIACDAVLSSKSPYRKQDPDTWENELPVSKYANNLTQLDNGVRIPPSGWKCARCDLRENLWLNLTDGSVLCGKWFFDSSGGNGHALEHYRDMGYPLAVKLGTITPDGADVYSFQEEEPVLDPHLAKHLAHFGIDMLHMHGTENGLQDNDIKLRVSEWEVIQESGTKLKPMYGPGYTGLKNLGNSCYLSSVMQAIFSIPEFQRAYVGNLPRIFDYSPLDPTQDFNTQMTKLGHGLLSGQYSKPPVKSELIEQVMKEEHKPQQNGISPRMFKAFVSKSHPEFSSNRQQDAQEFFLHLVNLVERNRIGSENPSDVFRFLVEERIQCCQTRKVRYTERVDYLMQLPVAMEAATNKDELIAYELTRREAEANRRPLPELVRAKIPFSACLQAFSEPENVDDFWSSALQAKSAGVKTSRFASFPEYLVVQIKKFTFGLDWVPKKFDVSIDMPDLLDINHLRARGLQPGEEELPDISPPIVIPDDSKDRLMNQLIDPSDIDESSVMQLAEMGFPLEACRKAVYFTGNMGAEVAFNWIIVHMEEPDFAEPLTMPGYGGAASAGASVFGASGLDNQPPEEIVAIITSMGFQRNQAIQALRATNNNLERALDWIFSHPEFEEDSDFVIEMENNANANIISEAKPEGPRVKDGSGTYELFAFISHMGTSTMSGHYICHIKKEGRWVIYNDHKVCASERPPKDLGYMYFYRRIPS
Briefly: co-IP; whole cell extract, immunoprecipitation with control or anti-USP13 antibodies; all proteins endogenous; immunoblotting.

The target of test [4] is overexpressed gp78 (UniProt Q9UKV5). Briefly: co-IP; sequential immunoprecipitation: extract of cells expressing FLAG-USP13 and untagged gp78, first FLAG beads, elution with FLAG peptide (0.2 mg/ml), then anti-gp78 or control antibody.
For test [5], the target named is T3, FLAG-USP13 (UniProt Q92995).
T3 sequence: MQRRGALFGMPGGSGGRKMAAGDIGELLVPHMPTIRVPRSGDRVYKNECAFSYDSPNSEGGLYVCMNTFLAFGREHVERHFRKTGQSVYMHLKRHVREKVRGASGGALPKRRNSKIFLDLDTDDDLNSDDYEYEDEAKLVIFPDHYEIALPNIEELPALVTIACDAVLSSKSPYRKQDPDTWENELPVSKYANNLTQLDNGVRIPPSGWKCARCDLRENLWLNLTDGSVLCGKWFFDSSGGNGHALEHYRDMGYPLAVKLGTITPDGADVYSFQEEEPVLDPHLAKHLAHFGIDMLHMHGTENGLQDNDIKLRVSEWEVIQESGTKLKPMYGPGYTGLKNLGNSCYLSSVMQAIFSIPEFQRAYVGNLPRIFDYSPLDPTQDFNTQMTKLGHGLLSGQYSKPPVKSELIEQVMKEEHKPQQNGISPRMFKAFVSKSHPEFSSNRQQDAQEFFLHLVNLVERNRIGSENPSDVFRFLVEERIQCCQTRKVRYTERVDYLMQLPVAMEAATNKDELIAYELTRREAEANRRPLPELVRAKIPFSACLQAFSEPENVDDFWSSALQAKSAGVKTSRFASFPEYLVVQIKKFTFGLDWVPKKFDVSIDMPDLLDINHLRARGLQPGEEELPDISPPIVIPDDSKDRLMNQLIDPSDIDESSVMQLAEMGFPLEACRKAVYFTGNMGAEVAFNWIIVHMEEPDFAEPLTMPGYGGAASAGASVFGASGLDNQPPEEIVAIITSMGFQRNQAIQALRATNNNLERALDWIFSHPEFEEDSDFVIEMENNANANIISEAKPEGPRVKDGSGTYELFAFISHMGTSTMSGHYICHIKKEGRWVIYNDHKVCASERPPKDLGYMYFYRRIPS
Briefly: co-IP; extracts of transfected cells (FLAG-tagged DUB or chimera, in part with gp78), immunoprecipitation with FLAG beads; NP40 lysis buffer; immunoblotting.

The target of test [6] is T4, FLAG-USP13 C345S (UniProt Q92995).
T4 sequence: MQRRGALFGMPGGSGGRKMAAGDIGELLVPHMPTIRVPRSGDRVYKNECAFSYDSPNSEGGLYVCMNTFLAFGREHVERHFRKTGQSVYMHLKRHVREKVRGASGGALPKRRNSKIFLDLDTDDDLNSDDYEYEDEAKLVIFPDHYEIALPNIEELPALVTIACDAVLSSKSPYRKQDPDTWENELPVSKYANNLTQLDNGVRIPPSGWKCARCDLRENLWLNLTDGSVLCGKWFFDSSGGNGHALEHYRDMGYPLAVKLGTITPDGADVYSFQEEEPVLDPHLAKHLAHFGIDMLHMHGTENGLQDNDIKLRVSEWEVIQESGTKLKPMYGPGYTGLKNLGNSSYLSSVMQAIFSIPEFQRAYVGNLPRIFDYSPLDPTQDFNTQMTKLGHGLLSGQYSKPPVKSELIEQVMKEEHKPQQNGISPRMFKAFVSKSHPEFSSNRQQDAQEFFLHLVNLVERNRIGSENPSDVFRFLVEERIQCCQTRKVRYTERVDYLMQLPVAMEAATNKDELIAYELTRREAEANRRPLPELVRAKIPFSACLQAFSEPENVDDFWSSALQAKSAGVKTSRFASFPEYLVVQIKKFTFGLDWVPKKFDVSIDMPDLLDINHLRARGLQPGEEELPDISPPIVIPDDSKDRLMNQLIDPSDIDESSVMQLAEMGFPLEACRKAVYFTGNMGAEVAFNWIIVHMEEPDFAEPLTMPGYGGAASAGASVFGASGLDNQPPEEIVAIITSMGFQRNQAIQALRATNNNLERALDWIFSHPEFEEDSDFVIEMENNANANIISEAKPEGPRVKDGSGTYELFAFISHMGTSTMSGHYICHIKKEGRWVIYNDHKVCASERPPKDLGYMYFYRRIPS
Described as above.

No constants are given. Whether binding was seen depends on the method and setting. For some of these results: Binding seen in cells or lysates may run through a third protein. Some entries that bind do so weakly or less than the wild type. For some of these results: Sequences can lack the tags named with a protein.

We go through five substances from publication PMC3889402.

As for “Bag6 purified from mammalian cells (from UniProt P46379 1-1132)”, in test [1], the binding entry was “binds”.
Turning to MMS1 (from UniProt P35998 1-433), the binding entry in test [2] is given as “binds”.
Regarding “endogenous Bag6 (from UniProt P46379 1-1132)”, the binding result in test [3], in test [4], in test [2], in test [5] and in test [6] was “binds” each time.
Consider “endogenous Trc35 (from UniProt Q7L5D6 1-327)”, for which the binding entry in test [4] and in test [5] was “binds” throughout.
As to “endogenous gp78 (from UniProt Q9UKV5 1-643) (enzyme)”, the binding entry in test [6] is “binds”.
